From patent US20080227735

Sequences of proteins named here, by UniProt entry; tags and fusion partners are left off. Residues count along the entry.
UniProt P07949, 29-1114 C634Y: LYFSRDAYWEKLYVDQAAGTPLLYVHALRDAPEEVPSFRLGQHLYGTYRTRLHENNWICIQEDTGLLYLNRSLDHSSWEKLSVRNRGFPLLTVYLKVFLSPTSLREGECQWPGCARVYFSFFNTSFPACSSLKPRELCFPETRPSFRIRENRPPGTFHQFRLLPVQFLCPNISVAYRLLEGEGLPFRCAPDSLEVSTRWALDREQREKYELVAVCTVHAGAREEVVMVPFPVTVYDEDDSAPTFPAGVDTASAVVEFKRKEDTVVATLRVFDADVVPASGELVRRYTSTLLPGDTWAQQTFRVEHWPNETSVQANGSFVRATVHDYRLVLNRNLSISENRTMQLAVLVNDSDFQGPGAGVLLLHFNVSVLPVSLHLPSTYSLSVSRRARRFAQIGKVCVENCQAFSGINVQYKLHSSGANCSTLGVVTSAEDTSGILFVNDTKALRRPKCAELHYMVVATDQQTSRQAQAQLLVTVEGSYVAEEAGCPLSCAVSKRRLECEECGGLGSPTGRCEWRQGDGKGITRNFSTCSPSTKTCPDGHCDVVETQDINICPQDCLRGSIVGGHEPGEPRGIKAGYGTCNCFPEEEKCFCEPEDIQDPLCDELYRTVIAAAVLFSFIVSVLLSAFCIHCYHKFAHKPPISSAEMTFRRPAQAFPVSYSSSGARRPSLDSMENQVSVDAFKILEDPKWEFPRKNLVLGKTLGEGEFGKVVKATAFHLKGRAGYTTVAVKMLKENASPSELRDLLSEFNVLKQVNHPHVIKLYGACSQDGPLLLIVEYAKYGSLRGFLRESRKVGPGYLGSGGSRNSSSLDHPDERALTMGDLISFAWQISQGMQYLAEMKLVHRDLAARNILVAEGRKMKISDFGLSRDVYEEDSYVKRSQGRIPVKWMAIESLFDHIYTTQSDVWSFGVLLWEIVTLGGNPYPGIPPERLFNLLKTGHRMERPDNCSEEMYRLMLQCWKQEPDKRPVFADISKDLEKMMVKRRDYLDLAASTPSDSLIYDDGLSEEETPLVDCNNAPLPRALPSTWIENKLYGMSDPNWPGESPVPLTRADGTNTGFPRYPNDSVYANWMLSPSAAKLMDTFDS
UniProt P07949, 29-1114 M918T: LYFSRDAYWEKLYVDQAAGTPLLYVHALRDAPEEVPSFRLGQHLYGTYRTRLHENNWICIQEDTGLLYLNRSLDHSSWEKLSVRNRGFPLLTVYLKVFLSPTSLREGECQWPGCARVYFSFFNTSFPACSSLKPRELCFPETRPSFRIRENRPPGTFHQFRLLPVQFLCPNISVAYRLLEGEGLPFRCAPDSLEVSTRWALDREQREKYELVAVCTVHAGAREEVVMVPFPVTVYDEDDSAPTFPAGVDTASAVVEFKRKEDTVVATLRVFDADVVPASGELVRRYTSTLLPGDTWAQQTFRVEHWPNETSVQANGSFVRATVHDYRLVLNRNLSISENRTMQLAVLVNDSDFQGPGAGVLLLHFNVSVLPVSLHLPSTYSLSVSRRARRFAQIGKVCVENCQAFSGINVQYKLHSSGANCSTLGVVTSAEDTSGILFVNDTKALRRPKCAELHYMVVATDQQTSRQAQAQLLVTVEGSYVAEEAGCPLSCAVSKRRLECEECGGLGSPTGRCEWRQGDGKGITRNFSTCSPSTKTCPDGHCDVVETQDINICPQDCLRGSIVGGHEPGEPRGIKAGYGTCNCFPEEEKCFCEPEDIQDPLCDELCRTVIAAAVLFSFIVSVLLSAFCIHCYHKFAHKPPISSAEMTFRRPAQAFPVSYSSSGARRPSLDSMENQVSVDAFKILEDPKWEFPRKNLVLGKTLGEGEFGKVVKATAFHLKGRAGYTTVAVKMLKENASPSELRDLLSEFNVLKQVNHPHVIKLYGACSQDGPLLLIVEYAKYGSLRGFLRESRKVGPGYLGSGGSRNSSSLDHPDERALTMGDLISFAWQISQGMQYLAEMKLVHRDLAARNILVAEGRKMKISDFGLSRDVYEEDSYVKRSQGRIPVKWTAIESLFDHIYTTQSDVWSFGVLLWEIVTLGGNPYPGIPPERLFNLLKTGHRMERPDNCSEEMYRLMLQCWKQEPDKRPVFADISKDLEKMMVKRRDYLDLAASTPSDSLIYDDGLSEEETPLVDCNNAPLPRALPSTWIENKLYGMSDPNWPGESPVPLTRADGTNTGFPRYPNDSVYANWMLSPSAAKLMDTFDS
UniProt P07949, 29-1114: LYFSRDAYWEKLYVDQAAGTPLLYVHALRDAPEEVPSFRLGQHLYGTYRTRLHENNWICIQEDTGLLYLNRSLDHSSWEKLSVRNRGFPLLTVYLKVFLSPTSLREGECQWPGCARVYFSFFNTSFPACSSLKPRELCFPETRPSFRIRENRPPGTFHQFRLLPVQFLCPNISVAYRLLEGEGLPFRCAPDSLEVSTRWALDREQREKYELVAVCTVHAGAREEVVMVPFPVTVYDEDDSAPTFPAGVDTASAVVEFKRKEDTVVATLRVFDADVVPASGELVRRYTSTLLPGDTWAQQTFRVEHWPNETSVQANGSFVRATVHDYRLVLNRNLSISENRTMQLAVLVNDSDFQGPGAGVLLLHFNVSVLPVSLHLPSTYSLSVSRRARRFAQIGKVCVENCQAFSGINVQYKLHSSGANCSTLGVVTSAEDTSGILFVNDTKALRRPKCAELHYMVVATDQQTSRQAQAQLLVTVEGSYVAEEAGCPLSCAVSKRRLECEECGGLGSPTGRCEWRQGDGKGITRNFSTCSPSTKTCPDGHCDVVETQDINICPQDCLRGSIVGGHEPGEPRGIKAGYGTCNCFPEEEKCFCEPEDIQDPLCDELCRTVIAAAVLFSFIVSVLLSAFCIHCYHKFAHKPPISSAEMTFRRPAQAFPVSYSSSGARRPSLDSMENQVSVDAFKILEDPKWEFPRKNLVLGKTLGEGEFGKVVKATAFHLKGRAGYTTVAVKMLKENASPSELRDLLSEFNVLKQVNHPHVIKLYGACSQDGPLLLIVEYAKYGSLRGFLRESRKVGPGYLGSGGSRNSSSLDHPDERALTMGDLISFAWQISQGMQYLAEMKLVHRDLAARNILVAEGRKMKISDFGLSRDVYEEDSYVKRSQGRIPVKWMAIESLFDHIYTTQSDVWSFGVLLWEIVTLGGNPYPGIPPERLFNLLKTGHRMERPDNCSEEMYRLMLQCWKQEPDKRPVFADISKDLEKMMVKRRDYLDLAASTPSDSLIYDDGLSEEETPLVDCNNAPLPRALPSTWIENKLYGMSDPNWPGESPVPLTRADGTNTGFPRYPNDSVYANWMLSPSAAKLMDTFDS
UniProt P35739, 33-799: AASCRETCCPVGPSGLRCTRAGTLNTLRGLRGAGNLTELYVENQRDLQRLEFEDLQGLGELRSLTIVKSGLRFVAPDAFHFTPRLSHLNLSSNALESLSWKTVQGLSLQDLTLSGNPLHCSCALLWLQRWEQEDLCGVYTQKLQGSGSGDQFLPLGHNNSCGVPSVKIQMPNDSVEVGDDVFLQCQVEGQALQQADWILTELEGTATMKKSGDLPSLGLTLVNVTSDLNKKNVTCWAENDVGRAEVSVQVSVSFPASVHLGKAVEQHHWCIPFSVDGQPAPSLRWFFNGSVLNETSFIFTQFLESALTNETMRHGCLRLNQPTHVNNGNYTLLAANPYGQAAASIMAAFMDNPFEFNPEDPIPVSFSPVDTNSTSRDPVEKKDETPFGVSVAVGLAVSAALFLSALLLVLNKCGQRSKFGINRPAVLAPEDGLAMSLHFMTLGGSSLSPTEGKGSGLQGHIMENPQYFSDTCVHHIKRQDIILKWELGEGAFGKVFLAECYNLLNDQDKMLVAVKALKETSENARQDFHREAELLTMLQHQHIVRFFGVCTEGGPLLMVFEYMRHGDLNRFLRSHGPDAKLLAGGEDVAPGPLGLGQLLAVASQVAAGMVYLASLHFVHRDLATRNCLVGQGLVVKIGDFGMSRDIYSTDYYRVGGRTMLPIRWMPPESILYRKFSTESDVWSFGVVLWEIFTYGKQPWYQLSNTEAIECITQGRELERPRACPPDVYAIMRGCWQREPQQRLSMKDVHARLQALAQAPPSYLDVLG

How the values were obtained:
[1] = target: Ret receptor tyrosine kinase C634Y (RetC634Y) on PC12 MEN 2A cells (Homo sapiens) (UniProt P07949); assay: binding assay; conditions: 2'-F pyrimidines (all C and U), protein on the cell surface
[2] = target: Ret receptor tyrosine kinase M918T (RetM918T) on PC12 MEN 2B cells (Homo sapiens) (UniProt P07949); assay: binding assay; conditions: 2'-F pyrimidines (all C and U); D4 binds PC12 MEN 2B cells; protein on the cell surface; protein details: stably transfected in rat PC12 cells, monomeric; label: 5'-32P in binding assays
[3] = target: TrkA receptor tyrosine kinase on PC12/wt cells (UniProt P35739); assay: activity in cells; conditions: 2'-F pyrimidines (all C and U); 200 nM D4; NGF-induced Erk phosphorylation unchanged; protein on the cell surface
[4] = target: Ret receptor tyrosine kinase wild-type on PC12/wt cells (Homo sapiens) (UniProt P07949); assay: activity in cells; conditions: 2'-F pyrimidines (all C and U); 200 nM D4 inhibits GDNF/GFRa1-induced Ret and Erk phosphorylation; protein on the cell surface; protein details: stably transfected in rat PC12 cells
[5] = 100 nM on PC12 MEN 2A cells, label: 5'-32P

Row | Sequence | binding result [1, 5] | other results
1 | CGCGGGAAUAGUAUGGAAGGAUACGUAUACCGUG [D4 lacking R4 and R5 tails] | – | binding result ([1]; PC12 MEN 2A cells, no significant difference in binding vs D4, less active in inhibition than full D4, variant of D4): binds
2 | GGGAGACAAGAAUAAACGCUCAACAAAGCGUGUAUUCUCGUGAGCCGACCAUCGUUGCGAACAUCCCCGGAACGAACGACAGGAGGCUCACAACAGGA [D33] | no binding | –
3 | GGGAGACAAGAAUAAACGCUCAACCCCGCUUUUUGACGUGAUCGAACGCGUAUCAGUAACGUCAGCAGUCGAGCAACGACAGGAGGCUCACAACAGGA [D32] | no binding | –
4 | GGGAGACAAGAAUAAACGCUCAACCGACCUGUACAGCAGUUAGUUACACGUUUGAAACAACCGGCGUUCGAGCAACGACAGGAGGCUCACAACAGGA [D60] | no binding | –
5 | GGGAGACAAGAAUAAACGCUCAACCGCGGUCUGUGGGACCCUUCAGGAUGAAGCGGCAACCCAUGCGGGCCAACGACAGGAGGCUCACAACAGGA [D87] | no binding | –
6 | GGGAGACAAGAAUAAACGCUCAAGACCCGUAUGAAGGUGGCGCAGGACACGACCGUCUGCAAUGAGCGAGCAACGACAGGAGGCUCACAACAGGA [D42] | no binding | –
7 | GGGAGACAAGAAUAAACGCUCAAGCGCGGGAAUAGUAUGGAAGGAUACGUAUACCGUGCAAUCCAGGGCAACGAACGACAGGAGGCUCACAACAGGA [D4] | – | binding result [2]: binds; functional effect of the aptamer [3]: not active; functional effect of the aptamer [4]: active
8 | GGGAGACAAGAAUAAACGCUCAAGGCCAUAGCGCACCACCAAGAGCAAAUCCCUAAGCGCGACUCGAGUGAGCAACGACAGGAGGCUCACAACAGGA [D14] | – | binding result ([1]; 100 nM on PC12 MEN 2A cells, not significantly above background, label: 5'-32P): no binding
9 | GGGAGACAAGAAUAAACGCUCAAGGCUUACACGGAGAAACAAGAGAGCGGCCCAAACUUGAUUGACAGUGGCCAACGACAGGAGGCUCACAACAGGA [D76] | no binding | –
10 | GGGAGACAAGAAUAAACGCUCAAGGGCCAAUCGAAGCCGGUAAUUCCCAAACUAACGUGCAAACUGCACCCGCAACGACAGGAGGCUCACAACAGGA [D20] | no binding | –

For part of these data: Where cells or extracts were used, other partners may take part. For part of these data: No signal at the amounts used counts as a negative. For part of these data: The exact form of at least one protein or probe is not confirmed.
